Measurements as given in article PMC4868690.
Residue numbers refer to the chain shown, from its start. No constants are given. Whether binding was seen depends on the method and setting. Binding seen in cells or lysates may run through a third protein. Some entries that bind do so weakly or less than the wild type. Sequences can lack the tags named with a protein.

Amino acid sequences for entries named in this document (tags omitted). A change or cut given only in a name is not applied to a line headed by its entry.
UniProt P05556: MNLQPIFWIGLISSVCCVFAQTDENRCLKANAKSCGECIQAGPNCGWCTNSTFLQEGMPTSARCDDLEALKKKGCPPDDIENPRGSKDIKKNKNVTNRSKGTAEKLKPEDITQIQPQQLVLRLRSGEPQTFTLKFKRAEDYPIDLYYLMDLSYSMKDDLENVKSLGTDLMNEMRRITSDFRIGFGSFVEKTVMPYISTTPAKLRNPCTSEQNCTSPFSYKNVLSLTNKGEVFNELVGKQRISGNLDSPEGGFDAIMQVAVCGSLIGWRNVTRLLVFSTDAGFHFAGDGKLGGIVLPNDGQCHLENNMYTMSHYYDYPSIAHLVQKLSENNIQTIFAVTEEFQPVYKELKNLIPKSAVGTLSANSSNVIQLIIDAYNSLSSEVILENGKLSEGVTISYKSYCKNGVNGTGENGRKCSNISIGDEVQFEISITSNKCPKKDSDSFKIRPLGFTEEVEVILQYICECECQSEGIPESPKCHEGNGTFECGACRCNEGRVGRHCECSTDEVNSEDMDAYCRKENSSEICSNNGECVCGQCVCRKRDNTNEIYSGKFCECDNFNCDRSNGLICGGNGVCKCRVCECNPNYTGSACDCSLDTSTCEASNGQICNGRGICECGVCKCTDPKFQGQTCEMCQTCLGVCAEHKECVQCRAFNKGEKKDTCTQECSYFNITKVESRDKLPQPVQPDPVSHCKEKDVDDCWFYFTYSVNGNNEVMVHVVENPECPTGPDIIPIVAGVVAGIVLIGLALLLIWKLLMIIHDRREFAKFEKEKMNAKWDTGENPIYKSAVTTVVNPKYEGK

Tests used:
[1] = target: T1, EGFP-Rab23 Q68L (human) (UniProt Q9ULC3); experiment: co-IP; Sa3 cells stably expressing EGFP-Rab23 forms lysed in IP and westernblot lysis buffer; anti-EGFP antibody 6 h, A/G plus beads overnight, five washes; immunoblot for endogenous partners
T1 sequence: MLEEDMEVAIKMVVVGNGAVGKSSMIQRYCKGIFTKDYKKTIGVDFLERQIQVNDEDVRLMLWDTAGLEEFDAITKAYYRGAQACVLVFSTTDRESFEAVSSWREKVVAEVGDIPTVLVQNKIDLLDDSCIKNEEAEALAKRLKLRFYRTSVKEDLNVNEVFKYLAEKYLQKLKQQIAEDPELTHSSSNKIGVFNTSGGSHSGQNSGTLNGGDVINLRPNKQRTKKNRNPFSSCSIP

[2] = target: T2, EGFP-Rab23 WT (human) (UniProt Q9ULC3); experiment: as above
T2 sequence: T1 sequence with L68Q

integrin β1 (from UniProt P05556 21-798) (receptor)
binding [1]: binds
binding [2]: binds
